This data set in a line: Color change (yellow index, ΔE) of extruded TPU fabrics after aging.

The structures appear in SMILES notation.

As for `CCOC(=O)CNC1=C/C(=N/c2ccc(F)cc2)CC(C)(C)C1` [Formula 38], where the note is “Compound 38 content 0.56”, the “Yellow index after aging” value is reported as 9.23, the Yellow index initial is listed as −0.10, the ΔE after aging is 5.72 and the “ΔE/aged ref (0)” value is recorded as 0.42. The “ΔE/initial ref (0)” value (Compound 38 content 0.56) came out at 0.32. Further, where the note is “Compound 38 content 1.0”, the “Yellow index after aging” value turned out to be 9.7, the Yellow index initial amounted to 1.97, the ΔE after aging is listed as 5.30 and the “ΔE/aged ref (0)” value came to 0.80. In addition, the “ΔE/initial ref (0)” value (Compound 38 content 1.0) was 3.62. Besides, under “Compound 38 content 2.0”, the “Yellow index after aging” value is 7.02, the Yellow index initial was determined as 1.26, the ΔE after aging worked out at 3.54 and the “ΔE/aged ref (0)” value worked out at 0.91. For the same compound, where the note is “Compound 38 content 2.0”, the “ΔE/initial ref (0)” value is 1.21.

Source of the values: patent publication US20240254096A1, “ULTRAVIOLET AND VISIBLE RADIATION ABSORBING COMPOUNDS” (ELKIMIA INC., priority 2021, published 2024).
